Assay results from US20230124467A1, “COMPOUNDS AND METHODS FOR TREATING DISEASES AND/OR CONDITIONS CAUSED BY CORONAVIRUS” (priority 2020, published 2023).
Where a name gives a salt, the structure may show the parent alone. Some results were stated once for a whole list of compounds, not compound by compound. Some ranges recur; such a range may be that of the whole group of compounds.

Tested on: SARS-CoV-2
Assay: In vitro antiviral assay, development of cytopathic effects (CPE), Example 1
Assay type: cell-based
Conditions: 20 PFU SARS-CoV-2 per well, Vero-E6, 72 h, 4 replicates

In the case of `Cc1c(O)cccc1C(=O)N[C@@H](CSc1ccccc1)[C@H](O)CN1C[C@H]2CCCC[C@H]2C[C@H]1C(=O)NC(C)(C)C` [Nelfinavir mesylate], the “antiviral effects (concentration at which shown)” value is reported as 2.5 to 25 µM.
